Results are given in words; binding and its absence hold for the method and conditions named. A result given as binding can be weak or reduced; the word gives no strength. Tags and fused reporters may be left off the sequences shown.
Biological target: T1, ParBBb-msfGFP-H3H4 (bait of the POLAR assay) (Bdellovibrio bacteriovorus) (UniProt Q6MGM0)
T1 sequence: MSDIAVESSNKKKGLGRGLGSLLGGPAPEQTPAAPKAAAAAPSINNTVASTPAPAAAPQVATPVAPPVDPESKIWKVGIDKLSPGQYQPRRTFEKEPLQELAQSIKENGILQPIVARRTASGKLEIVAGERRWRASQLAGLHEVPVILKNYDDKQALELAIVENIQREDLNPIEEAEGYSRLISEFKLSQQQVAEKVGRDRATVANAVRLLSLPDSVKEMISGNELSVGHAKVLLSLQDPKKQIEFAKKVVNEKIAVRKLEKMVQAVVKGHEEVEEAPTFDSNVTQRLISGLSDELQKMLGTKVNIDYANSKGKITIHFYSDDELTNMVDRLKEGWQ
Assay: PopZ-linked apical recruitment (POLAR) assay; E. coli TB28; bait fused to msfGFP-H3H4 and drawn to PopZCc clusters, prey fused to mScarlet; 100 μM IPTG (prey) with or without 0.2% arabinose (PopZCc and bait), 2 h at 37°C; fluorescence snapshots

binding: binds
Substance: ParABb-mScarlet (prey of the POLAR assay) (Bdellovibrio bacteriovorus)
